According to patent US20240141294A1, “CGMP COMPLIANT PRODUCTION AND EXPANSION OF PLASMACYTOID DENDRITIC CELLS FROM HEMATOPOIETIC STEM AND PROGENITOR CELLS” (AARHUS UNIVERSITET, priority 2021, published 2024):
This continues a long series; more values of the same kind are listed elsewhere.

Tested on: HSPC-pDCs
Assay: RNA-sequencing of HSPC-pDCs generated with or without ascorbic acid
Assay type: cell-based, human
Details: Table 3
Method: HSPCs were thawed and 1×10^5 cells were seeded in DC medium with or without supplementation of ascorbic acid (AA). Following 16 days of differentiation with or without AA in the medium, pDCs were isolated by immunomagnetic depletion of non-pDCs, and HSPCs-pDCs were then primed for 72 hours with IFN-β/γ. Following priming, HSPC-pDCs were stored in RNAprotect Cell Reagent (Qiagen) at −80° C. until total RNA was extracted using the RNeasy Plus Micro Kit (Qiagen), which efficiently eliminates genomic DNA without the need for DNase treatment. The total RNA was send to BGI Europe for RNA-seq. Here, a non-stranded & polyA-selected mRNA library was prepared from the total RNA and subjected to PE100 sequencing using the BGISEQ platform. The samples generated on average about 4.84 Gb bases per sample. Low quality reads were filtered and the remaining reads were mapped to the genome with an average mapping ratio with the reference genome at 92.74%, the average gene mapping ratio at 79.90%. In total, 18,412 genes were identified. Gene expression was calculated based on the reads, differentially expressed genes and gene ontology analyses were analyzed on BGI's software analysis platform Dr. Tom. HSPCs were thawed and 1×10^5 cells were seeded in DC medium with or without supplementation of ascorbic acid (AA). Following 16 days of differentiation with or without AA in the medium, pDCs were isolated by immunomagnetic depletion of non-pDCs, and HSPCs-pDCs were then primed for 72 hours with IFN-β/γ. Following priming, HSPC-pDCs were stored in RNAprotect Cell Reagent (Qiagen) at −80 degrees until total RNA was extracted using the RNeasy Plus Micro Kit (Qiagen), which efficiently eliminates genomic DNA without the need for DNase treatment. The total RNA was send to BGI Europe for RNA-seq. Here, a non-stranded & polyA-selected mRNA library was prepared from the total RNA and subjected to PE100 sequencing using the BGISEQ platform. The samples generated on average about 4.84 Gb bases per sample. Low quality reads were filtered and the remaining reads were mapped to the genome with an average mapping ratio with the reference genome at 92.74%, the average gene mapping ratio at 79.90%. In total, 18,412 genes were identified. Gene expression was calculated based on the reads, differentially expressed genes and gene ontology analyses were analyzed on BGI's software analysis platform Dr. Tom.

O=C1O[C@H]([C@@H](O)CO)C(O)=C1O [ascorbic acid]
log2 (+AA/−AA) (gene AP2A1, Qvalue 0.96): 0.049
log2 (+AA/−AA) (gene AP3B1, Qvalue 0.73): −0.122
log2 (+AA/−AA) (gene AP3B2, Qvalue 0.96): 0.363
log2 (+AA/−AA) (gene AP3D1, Qvalue 0.20): 0.256
log2 (+AA/−AA) (gene AP3M1, Qvalue 0.96): −0.050
log2 (+AA/−AA) (gene AP3M2, Qvalue 0.89): 0.220
log2 (+AA/−AA) (gene AP3S1, Qvalue 0.86): −0.090
log2 (+AA/−AA) (gene AP3S2, Qvalue 0.04): −0.480
log2 (+AA/−AA) (gene AP4B1, Qvalue 0.53): −0.275
log2 (+AA/−AA) (gene AP4E1, Qvalue 0.95): 0.089
log2 (+AA/−AA) (gene AP4M1, Qvalue 1.00): −0.003
log2 (+AA/−AA) (gene AP4S1, Qvalue 0.49): −0.313
log2 (+AA/−AA) (gene BLOC1S2, Qvalue 0.94): 0.114
log2 (+AA/−AA) (gene BST2, Qvalue 0.91): 0.079
log2 (+AA/−AA) (gene CHUK, Qvalue 0.95): 0.094
log2 (+AA/−AA) (gene CLEC4C, Qvalue 9.44E−06): 3.491
log2 (+AA/−AA) (gene DOCK2, Qvalue 0.71): 0.098
log2 (+AA/−AA) (gene FURIN, Qvalue 0.93): 0.089
log2 (+AA/−AA) (gene HSP90B1, Qvalue 0.38): −0.314
log2 (+AA/−AA) (gene IL3RA, Qvalue 0.75): 0.247
log2 (+AA/−AA) (gene IRAK1, Qvalue 0.19): 0.214
log2 (+AA/−AA) (gene IRAK4, Qvalue 0.94): −0.069
log2 (+AA/−AA) (gene IRF1, Qvalue 0.96): −0.045
log2 (+AA/−AA) (gene IRF3, Qvalue 0.91): −0.082
log2 (+AA/−AA) (gene IRF5, Qvalue 0.32): 0.232
log2 (+AA/−AA) (gene IRF7, Qvalue 3.19E−04): 1.065
log2 (+AA/−AA) (gene IRF8, Qvalue 1.77E−23): 1.594
log2 (+AA/−AA) (gene IRF9, Qvalue 0.37): 0.404
log2 (+AA/−AA) (gene LAMP5, Qvalue 1.29E−07): 2.419
log2 (+AA/−AA) (gene LILRA4, Qvalue 0.04): 1.497
log2 (+AA/−AA) (gene MAP3K7, Qvalue 0.46): −0.194
log2 (+AA/−AA) (gene MAPK1, Qvalue 0.90): −0.067
log2 (+AA/−AA) (gene MYD88, Qvalue 0.02): 0.697
log2 (+AA/−AA) (gene NRP1, Qvalue 0.01): 1.661
log2 (+AA/−AA) (gene PACSIN1, Qvalue 3.16E−03): 3.559
log2 (+AA/−AA) (gene PLSCR1, Qvalue 0.03): 0.576
log2 (+AA/−AA) (gene RSAD2, Qvalue 0.23): 1.967
log2 (+AA/−AA) (gene SLC15A1, Qvalue 0.95): 1.770
log2 (+AA/−AA) (gene SYK, Qvalue 0.82): −0.104
log2 (+AA/−AA) (gene TAB1, Qvalue 0.71): −0.152
log2 (+AA/−AA) (gene TAB2, Qvalue 0.43): 0.208
log2 (+AA/−AA) (gene TBK1, Qvalue 0.96): 0.039
log2 (+AA/−AA) (gene TEPSIN, Qvalue 0.92): −0.118
log2 (+AA/−AA) (gene TLR3, Qvalue 0.28): 1.507
log2 (+AA/−AA) (gene TLR7, Qvalue 1.1E−20): 2.326
log2 (+AA/−AA) (gene TLR8, Qvalue 5.99E−07): 1.584
log2 (+AA/−AA) (gene TLR9, Qvalue 1.70E−07): 2.487
log2 (+AA/−AA) (gene TRAF3, Qvalue 0.01): 0.547
log2 (+AA/−AA) (gene TRAF6, Qvalue 1.00): 0.008
log2 (+AA/−AA) (gene TYROBP, Qvalue 0.17): 0.475
log2 (+AA/−AA) (gene UBE2N, Qvalue 0.03): −0.327
log2 (+AA/−AA) (gene UBE2V1, Qvalue 0.77): −0.100
log2 (+AA/−AA) (gene UNC93B1, Qvalue 0.04): 0.649
